Data as given in paper PMC2438350, “Comparison of four different colorimetric and fluorometric cytotoxicity assays in a zebrafish liver cell line” (BMC Pharmacology, 2008).

System: ZFL cells
Experiment: LDH assay (released lactate dehydrogenase activity), cytotoxicity
Type: cell-based, zebrafish (Danio rerio)
Conditions: Danio rerio, read-out: EC50 (50% loss of cell viability), 24 h exposure, 1% FBS, mean ± SD of three experiments
Description: Each compound was dissolved in dimethyl sulfoxide (DMSO) and diluted in a way that all stock solutions were 200 times concentrated compared to the final test concentrations. Concentration ranges were 30 pM-1.97 μM for BaP, 5 nM-5 μM for Flus, 5 nM-11 μM for Tam, and 0.2–43 μM for 4-OHT, which is in the range of in vivo studies with waterborne exposure of zebrafish for BaP, Tam, and 4-OHT [20-22, 29]. For Flusilazole, no studies on fish are available.
For finding the optimal biological test conditions, in the beginning different cell densities were applied using two-fold dilution series in the range of 780–100,000 cells/well and cell viability tests were performed after 24 h. […]
A second set of cells was exposed to the test compounds for the LDH assay, which was performed using the Cytotoxicity Detection Kit LDH (Roche). […] 100 μL of the reaction solution from the kit, containing the detection dye and the catalyst were then added and absorption was measured after 30 min at 490 nm with 655 nm as reference wavelength in an ELISA reader (Model 680, Biorad). As for the other assays, background values from wells without cells were subtracted and average values for the triplicates calculated. Cytotoxicity was then calculated according to the following equation: Cytotoxicity (%) = (experimental value - DMSO control)/(positive control - DMSO control) × 100. […]

For `CC/C(=C(\c1ccccc1)c1ccc(OCCN(C)C)cc1)c1ccccc1` [Tamoxifen], which EC50 is on record?
The EC50 was 1880 ± 1010 nM.
